Laboratory results from the supplement of paper PMC4635364.
Counter-ions that a name gives are not always drawn. The list shows a part of the results. This data set is noisy: repeats of one test often differ as much as different tests do.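 Human fetal ventral-midbrain neural progenitor line ReNCell VM, differentiated without mitogens. Images stained for doublecortin (early neurons) or tyrosine hydroxylase (dopaminergic neurons) were scored by blinded raters against untreated wells (0 = no change). Repeats and both raters were averaged, and compounds averaging 2 or higher were picked as hits for retesting.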

Tests used:
ReNCell VM [1] = assay: neuronal differentiation score (DCX+ cell fraction vs untreated, manual image score) (score (-3 to 3)); higher = more neuronal differentiation; conditions: 2 uM, 2 weeks
ReNCell VM [2] = assay: dopaminergic neuron differentiation score (TH+ cell fraction vs untreated, manual image score) (score (0 to 3)); higher = more TH+ dopaminergic neuron differentiation; conditions: 2 uM, 4 weeks, BDNF 10 ng/ml + GDNF 10 ng/ml

Cc1c(Cl)cccc1Nc1ccccc1C(=O)O
neuronal differentiation score (ReNCell VM [1]; library: Spectrum): inactive: 0
dopaminergic neuron differentiation score (ReNCell VM [2]; library: Spectrum): inactive: 0

CC(c1cc2ccccc2s1)N(O)C(N)=O (stereo not drawn)
neuronal differentiation score (ReNCell VM [1]; library: Spectrum): inactive: -1
dopaminergic neuron differentiation score (ReNCell VM [2]; library: Spectrum): inactive: 0

O[C@H]1[C@H](O)[C@@H](O)[C@H](O)[C@@H](O)[C@H]1O
neuronal differentiation score (ReNCell VM [1]; library: Spectrum): inactive: 0
dopaminergic neuron differentiation score (ReNCell VM [2]; library: Spectrum): inactive: 0

COc1ccc(C(=O)O)cc1 [Anisic acid]
neuronal differentiation score (ReNCell VM [1]; library: Phytochemical): inactive: 0
dopaminergic neuron differentiation score (ReNCell VM [2]; library: Phytochemical): inactive: 0

C[C@H]1[C@H](NC(=O)/C(=N\OC(C)(C)C(=O)O)c2csc(N)n2)C(=O)N1S(=O)(=O)O
neuronal differentiation score (ReNCell VM [1]; library: Spectrum): inactive: 0
dopaminergic neuron differentiation score (ReNCell VM [2]; library: Spectrum): inactive: 0

NC(N)=NCCNS(=O)(=O)c1cccc2cnccc12 [HA-1004 hydrochloride]
neuronal differentiation score (ReNCell VM [1]; library: LOPAC): inactive: 0
dopaminergic neuron differentiation score (ReNCell VM [2]; library: LOPAC): inactive: 0

Nc1ccc(S(=O)(=O)O)cc1.Nc1ccc(S(=O)(=O)O)cc1.[Zn]
neuronal differentiation score (ReNCell VM [1]; library: Spectrum): inactive: 0
dopaminergic neuron differentiation score (ReNCell VM [2]; library: Spectrum): inactive: 0

O=C1C=C2CC3(O)COc4c(ccc(O)c4O)C3=C2C=C1O (stereo not drawn)
neuronal differentiation score (ReNCell VM [1]; library: Spectrum): inactive: 0
dopaminergic neuron differentiation score (ReNCell VM [2]; library: Spectrum): inactive: 0

C[C@H]1COC2=C1C(=O)C(=O)c1c2ccc2c1CCCC2(C)C
neuronal differentiation score (ReNCell VM [1]; library: Spectrum): inactive: 0
dopaminergic neuron differentiation score (ReNCell VM [2]; library: Spectrum): inactive: 0

CC(C)(Oc1ccc(CCNC(=O)c2ccc(Cl)cc2)cc1)C(=O)O [Bezafibrate]
neuronal differentiation score (ReNCell VM [1]; library: Prestwick): inactive: 0
dopaminergic neuron differentiation score (ReNCell VM [2]; library: Prestwick): inactive: 0

CC[C@H]1OC(=O)[C@H](C)[C@@H](O[C@H]2C[C@@](C)(OC)[C@@H](O)[C@H](C)O2)[C@H](C)[C@@H](O[C@@H]2O[C@H](C)C[C@H](N(C)C)[C@H]2O)[C@](C)(O)C[C@@H](C)CN(C)[C@H](C)[C@@H](O)[C@]1(C)O
neuronal differentiation score (ReNCell VM [1]; library: Spectrum): inactive: 0
dopaminergic neuron differentiation score (ReNCell VM [2]; library: Spectrum): inactive: 0

COc1c(O)cc2c(c1O)[C@@H]1O[C@H](CO)[C@@H](O)[C@H](O)[C@H]1OC2=O [Bergenin monohydrate]
neuronal differentiation score (ReNCell VM [1]; library: Phytochemical): inactive: 0
dopaminergic neuron differentiation score (ReNCell VM [2]; library: Phytochemical): inactive: 0

C=C1C2CC[C@@]3(C)[C@H](c4ccoc4)OC(=O)C[C@]13O[C@H]1CC(O)C(C)(C)C(CC(=O)OC)[C@@]21C (stereo partly drawn) [3alpha-HYDROXY-3-DEOXYANGOLENSIC ACID METHYL ESTER]
neuronal differentiation score (ReNCell VM [1]; library: Spectrum): inactive: 0
dopaminergic neuron differentiation score (ReNCell VM [2]; library: Spectrum): inactive: 0

Nc1ccccc1C(=O)CC(N)C(=O)O (stereo not drawn)
neuronal differentiation score (ReNCell VM [1]; library: Spectrum): inactive: 0
dopaminergic neuron differentiation score (ReNCell VM [2]; library: Spectrum): inactive: 0

COc1ccc(-c2coc3cc(O)ccc3c2=O)c(OC)c1
neuronal differentiation score (ReNCell VM [1]; library: Spectrum): inactive: 0
dopaminergic neuron differentiation score (ReNCell VM [2]; library: Spectrum): inactive: 0

CC(=O)O[C@@H]1C[C@H]2C(C)(C)C(=O)CC[C@]2(C)[C@H]2CC[C@@]3(C)[C@H](c4ccoc4)OC(=O)[C@H]4O[C@]43[C@@]21C
neuronal differentiation score (ReNCell VM [1]; library: Spectrum): inactive: 0
dopaminergic neuron differentiation score (ReNCell VM [2]; library: Spectrum): inactive: 0

CCC1(C)OC(=O)N(C)C1=O (stereo not drawn)
neuronal differentiation score (ReNCell VM [1]; library: Spectrum): inactive: 0
dopaminergic neuron differentiation score (ReNCell VM [2]; library: Spectrum): inactive: 0

COC(=O)C1=C(C)NC(C)=C(C(=O)OCCN(C)Cc2ccccc2)C1c1cccc([N+](=O)[O-])c1 (stereo not drawn)
neuronal differentiation score (ReNCell VM [1]; library: Spectrum): inactive: 0
dopaminergic neuron differentiation score (ReNCell VM [2]; library: Spectrum): inactive: 0

O=c1c(O)cccc2cc(O)c(O)c(O)c12
neuronal differentiation score (ReNCell VM [1]; library: Spectrum): inactive: 0
dopaminergic neuron differentiation score (ReNCell VM [2]; library: Spectrum): inactive: 0

O=C(Nc1ccccc1)OCC(CN1CCCCC1)OC(=O)Nc1ccccc1 (stereo not drawn) [Diperodon hydrochloride]
neuronal differentiation score (ReNCell VM [1]; library: Prestwick): inactive: 0
dopaminergic neuron differentiation score (ReNCell VM [2]; library: Prestwick): inactive: 0

NS(=O)(=O)c1cccc2c1c([N+](=O)[O-])cc1nc(O)c(O)nc12 [NBQX disodium salt]
neuronal differentiation score (ReNCell VM [1]; library: Tocriscreen): inactive: 0
dopaminergic neuron differentiation score (ReNCell VM [2]; library: Tocriscreen): inactive: 0

CC(C)N1Cc2cc(S(C)(=O)=O)ccc2N(CCN2CC=C(c3c[nH]c4cc(F)ccc34)CC2)S1(=O)=O
neuronal differentiation score (ReNCell VM [1]; library: Tocriscreen): inactive: 0
dopaminergic neuron differentiation score (ReNCell VM [2]; library: Tocriscreen): inactive: 0

CC(C)=CCC1=C(O)C(=O)c2ccccc2C1=O [Lapachol]
neuronal differentiation score (ReNCell VM [1]; library: Phytochemical): inactive: 0
dopaminergic neuron differentiation score (ReNCell VM [2]; library: Phytochemical): inactive: 0

CC(C)C[C@H](NC(=O)N1CCCCCC1)C(=O)N[C@H](Cc1cn(C)c2ccccc12)C(=O)N[C@H](Cc1ccccn1)C(=O)O
neuronal differentiation score (ReNCell VM [1]; library: Tocriscreen): inactive: 0
dopaminergic neuron differentiation score (ReNCell VM [2]; library: Tocriscreen): inactive: 0

COc1ccc(-c2cc(=O)c3c(O)c(OC)c(OC)c(OC)c3o2)cc1OC
neuronal differentiation score (ReNCell VM [1]; library: Spectrum): inactive: 0
dopaminergic neuron differentiation score (ReNCell VM [2]; library: Spectrum): inactive: 0

CC(=O)OCC[N+](C)(C)C
neuronal differentiation score (ReNCell VM [1]; library: Spectrum): inactive: 0
dopaminergic neuron differentiation score (ReNCell VM [2]; library: Spectrum): inactive: 0

Cc1cc(-c2ccccc2)nnc1NCCN1CCOCC1 [Minaprine dihydrochloride]
neuronal differentiation score (ReNCell VM [1]; library: Prestwick): inactive: 0
dopaminergic neuron differentiation score (ReNCell VM [2]; library: Prestwick): inactive: 0

CC#CCn1c(N2CCC[C@@H](N)C2)nc2c1c(=O)n(Cc1nc(C)c3ccccc3n1)c(=O)n2C
neuronal differentiation score (ReNCell VM [1]; library: Spectrum): inactive: 0
dopaminergic neuron differentiation score (ReNCell VM [2]; library: Spectrum): inactive: 0

COc1c(OC)c2occc2c2oc(=O)ccc12
neuronal differentiation score (ReNCell VM [1]; library: Spectrum): inactive: 0
dopaminergic neuron differentiation score (ReNCell VM [2]; library: Spectrum): inactive: 0
